Laboratory results: the supplement of paper PMC10849652
Some of the results follow.

Chains of the proteins cited; added tags and fusions are not shown. Lines headed by an entry give the natural chain unless they say otherwise; changes in a name come on top.
UniProt Q00535, whole entry, looked up: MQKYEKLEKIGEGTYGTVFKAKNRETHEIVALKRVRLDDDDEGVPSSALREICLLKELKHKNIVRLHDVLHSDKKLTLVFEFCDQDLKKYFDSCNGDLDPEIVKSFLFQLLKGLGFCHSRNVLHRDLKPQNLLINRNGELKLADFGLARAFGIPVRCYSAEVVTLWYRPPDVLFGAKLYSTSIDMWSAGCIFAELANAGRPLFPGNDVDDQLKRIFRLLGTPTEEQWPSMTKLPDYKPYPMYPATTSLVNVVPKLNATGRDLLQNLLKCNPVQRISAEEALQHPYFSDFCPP
UniProt Q9P209, whole entry, looked up: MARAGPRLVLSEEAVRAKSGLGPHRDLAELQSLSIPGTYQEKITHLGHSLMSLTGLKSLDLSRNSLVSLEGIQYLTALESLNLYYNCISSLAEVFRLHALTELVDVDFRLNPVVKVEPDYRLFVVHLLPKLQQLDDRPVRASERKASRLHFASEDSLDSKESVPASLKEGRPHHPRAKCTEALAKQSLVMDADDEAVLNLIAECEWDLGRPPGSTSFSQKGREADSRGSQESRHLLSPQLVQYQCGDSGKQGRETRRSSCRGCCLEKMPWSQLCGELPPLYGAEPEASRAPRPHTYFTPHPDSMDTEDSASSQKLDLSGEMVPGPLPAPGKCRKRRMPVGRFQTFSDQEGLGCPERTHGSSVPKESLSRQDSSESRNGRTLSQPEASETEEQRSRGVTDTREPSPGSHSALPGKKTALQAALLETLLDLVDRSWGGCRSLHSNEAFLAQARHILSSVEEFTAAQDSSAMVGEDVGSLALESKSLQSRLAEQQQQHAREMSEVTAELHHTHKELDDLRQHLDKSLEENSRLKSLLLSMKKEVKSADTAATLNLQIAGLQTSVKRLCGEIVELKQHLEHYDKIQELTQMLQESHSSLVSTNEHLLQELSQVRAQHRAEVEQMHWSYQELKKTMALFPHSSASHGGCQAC
UniProt Q99741: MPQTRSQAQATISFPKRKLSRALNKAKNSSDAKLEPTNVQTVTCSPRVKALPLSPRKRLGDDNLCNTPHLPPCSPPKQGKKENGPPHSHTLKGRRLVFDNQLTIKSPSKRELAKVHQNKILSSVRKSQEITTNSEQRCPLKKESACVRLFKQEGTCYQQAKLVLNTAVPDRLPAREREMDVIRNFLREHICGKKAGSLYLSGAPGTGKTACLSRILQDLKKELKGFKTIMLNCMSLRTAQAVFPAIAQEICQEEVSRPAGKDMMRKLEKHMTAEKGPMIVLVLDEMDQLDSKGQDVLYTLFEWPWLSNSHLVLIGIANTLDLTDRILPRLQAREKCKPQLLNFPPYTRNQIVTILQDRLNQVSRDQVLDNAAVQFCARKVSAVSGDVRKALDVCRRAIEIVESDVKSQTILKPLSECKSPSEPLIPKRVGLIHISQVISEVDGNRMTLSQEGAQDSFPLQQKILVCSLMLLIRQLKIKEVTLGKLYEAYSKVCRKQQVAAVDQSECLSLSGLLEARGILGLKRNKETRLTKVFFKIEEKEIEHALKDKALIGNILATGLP
UniProt Q86XR8: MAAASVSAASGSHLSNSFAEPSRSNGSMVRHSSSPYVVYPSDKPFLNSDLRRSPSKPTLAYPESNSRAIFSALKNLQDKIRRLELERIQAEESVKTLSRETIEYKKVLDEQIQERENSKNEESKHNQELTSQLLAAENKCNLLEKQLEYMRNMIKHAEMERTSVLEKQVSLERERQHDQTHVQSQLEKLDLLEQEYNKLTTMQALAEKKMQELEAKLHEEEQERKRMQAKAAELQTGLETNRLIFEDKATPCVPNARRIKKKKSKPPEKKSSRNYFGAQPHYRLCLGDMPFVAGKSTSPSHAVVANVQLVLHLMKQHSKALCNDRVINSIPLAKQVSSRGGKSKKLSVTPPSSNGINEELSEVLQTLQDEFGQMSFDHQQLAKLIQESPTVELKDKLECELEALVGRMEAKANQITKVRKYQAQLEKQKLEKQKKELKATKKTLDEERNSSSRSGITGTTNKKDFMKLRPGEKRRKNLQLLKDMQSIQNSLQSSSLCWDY
UniProt Q8IYX8: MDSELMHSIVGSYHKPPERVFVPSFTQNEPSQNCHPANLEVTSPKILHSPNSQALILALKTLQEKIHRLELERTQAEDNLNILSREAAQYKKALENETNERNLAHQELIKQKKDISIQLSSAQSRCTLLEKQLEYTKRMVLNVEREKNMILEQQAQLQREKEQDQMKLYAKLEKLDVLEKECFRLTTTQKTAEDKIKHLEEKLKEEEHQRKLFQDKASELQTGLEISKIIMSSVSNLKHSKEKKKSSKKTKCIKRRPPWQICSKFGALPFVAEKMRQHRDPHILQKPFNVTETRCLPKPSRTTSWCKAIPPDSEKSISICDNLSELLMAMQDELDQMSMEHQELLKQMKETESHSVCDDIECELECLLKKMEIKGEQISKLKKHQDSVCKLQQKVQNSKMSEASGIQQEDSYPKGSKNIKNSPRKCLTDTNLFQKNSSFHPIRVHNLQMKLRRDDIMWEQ
UniProt P17676: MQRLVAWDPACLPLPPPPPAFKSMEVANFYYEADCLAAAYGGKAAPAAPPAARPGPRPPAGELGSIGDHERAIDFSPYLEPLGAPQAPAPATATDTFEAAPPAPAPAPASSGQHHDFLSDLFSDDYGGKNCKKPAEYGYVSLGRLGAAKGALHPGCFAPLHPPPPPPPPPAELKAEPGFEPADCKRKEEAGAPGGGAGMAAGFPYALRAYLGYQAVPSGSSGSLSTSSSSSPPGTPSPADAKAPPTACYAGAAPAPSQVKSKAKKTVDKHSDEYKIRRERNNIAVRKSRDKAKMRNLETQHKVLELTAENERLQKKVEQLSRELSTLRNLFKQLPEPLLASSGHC
UniProt A8MTT3: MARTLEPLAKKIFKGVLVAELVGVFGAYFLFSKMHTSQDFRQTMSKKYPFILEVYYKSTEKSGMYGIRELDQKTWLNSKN
UniProt O94986: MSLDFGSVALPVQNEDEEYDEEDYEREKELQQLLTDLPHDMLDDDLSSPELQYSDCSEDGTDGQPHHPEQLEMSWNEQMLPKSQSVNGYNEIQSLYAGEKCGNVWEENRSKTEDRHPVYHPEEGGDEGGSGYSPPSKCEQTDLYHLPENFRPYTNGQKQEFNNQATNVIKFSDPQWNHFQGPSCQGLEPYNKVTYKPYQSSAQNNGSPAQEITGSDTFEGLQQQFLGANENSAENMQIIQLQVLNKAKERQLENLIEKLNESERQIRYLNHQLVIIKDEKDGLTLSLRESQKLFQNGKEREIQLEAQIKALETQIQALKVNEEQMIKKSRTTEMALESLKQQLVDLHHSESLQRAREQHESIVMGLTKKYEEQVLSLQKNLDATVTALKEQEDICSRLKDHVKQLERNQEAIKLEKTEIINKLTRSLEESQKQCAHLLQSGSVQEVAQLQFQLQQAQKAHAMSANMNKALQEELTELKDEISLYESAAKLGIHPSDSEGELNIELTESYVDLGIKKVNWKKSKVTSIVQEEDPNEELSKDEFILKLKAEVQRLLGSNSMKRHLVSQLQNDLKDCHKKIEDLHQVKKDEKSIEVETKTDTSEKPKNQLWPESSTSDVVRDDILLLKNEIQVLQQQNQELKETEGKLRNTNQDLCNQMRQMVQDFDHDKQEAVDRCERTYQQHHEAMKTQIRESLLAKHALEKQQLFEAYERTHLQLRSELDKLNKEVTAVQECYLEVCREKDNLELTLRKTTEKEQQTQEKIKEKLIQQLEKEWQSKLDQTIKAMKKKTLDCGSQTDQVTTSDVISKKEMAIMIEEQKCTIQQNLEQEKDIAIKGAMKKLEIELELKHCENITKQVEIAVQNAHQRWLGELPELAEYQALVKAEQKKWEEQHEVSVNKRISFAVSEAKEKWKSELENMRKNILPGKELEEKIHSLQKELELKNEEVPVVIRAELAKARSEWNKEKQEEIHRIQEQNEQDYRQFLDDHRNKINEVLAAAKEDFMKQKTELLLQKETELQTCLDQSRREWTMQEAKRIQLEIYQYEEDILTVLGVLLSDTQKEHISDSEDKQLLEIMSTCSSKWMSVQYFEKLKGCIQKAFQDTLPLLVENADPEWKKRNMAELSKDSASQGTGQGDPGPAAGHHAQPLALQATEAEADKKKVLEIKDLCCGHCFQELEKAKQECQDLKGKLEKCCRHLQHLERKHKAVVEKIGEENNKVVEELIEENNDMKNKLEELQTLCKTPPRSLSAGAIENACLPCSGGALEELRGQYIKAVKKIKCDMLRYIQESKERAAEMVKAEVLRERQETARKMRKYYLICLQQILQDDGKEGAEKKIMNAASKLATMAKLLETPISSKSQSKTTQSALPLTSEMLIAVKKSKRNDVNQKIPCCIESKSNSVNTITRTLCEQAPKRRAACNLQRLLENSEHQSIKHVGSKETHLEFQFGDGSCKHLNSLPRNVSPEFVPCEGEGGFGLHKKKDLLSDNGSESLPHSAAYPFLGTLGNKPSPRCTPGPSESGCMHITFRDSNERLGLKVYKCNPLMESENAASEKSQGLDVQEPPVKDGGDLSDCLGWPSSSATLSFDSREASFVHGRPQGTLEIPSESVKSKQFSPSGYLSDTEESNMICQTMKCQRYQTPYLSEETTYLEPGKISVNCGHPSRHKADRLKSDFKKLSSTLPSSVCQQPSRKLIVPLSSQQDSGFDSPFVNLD
UniProt O43822: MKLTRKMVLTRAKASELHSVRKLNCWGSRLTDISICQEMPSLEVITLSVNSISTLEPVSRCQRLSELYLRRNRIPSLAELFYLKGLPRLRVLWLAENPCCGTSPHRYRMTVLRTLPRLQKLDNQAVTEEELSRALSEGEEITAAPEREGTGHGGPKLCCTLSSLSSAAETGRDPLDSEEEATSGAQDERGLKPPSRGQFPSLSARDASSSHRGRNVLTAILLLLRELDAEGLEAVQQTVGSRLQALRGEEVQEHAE
UniProt Q9BWV3: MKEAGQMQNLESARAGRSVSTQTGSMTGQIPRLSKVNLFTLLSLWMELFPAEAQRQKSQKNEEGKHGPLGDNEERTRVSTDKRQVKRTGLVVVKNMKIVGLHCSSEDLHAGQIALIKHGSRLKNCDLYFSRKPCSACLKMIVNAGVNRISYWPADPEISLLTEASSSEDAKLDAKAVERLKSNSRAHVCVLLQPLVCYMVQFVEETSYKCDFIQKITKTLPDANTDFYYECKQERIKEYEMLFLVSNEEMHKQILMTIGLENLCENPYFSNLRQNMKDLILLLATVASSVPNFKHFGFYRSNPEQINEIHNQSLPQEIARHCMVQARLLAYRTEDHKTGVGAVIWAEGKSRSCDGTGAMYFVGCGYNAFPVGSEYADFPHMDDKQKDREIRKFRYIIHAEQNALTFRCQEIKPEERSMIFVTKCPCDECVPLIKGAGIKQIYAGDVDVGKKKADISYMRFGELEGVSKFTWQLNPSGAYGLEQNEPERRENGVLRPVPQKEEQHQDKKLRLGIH
UniProt Q7Z7K6: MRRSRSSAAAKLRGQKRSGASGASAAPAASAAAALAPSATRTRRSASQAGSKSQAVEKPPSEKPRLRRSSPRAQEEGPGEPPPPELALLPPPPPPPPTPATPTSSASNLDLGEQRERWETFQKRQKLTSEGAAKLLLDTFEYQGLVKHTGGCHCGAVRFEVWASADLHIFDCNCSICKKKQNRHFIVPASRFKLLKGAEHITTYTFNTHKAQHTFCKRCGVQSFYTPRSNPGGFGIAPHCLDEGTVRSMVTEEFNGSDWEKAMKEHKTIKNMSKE

Legend:
Test in all cases: log2 fold change, soluble protein after heating vs DMSO (PISA); higher = thermal stabilisation; K562 lysate, 10 uM; active = over 0.2 and 3.5 SD of the protein, either way, in both replicates (recomputed)
[1] = compound: C#Cc1cccc(Nc2ncnc3cc(OCCOC)c(OCCOC)cc23)c1 [erlotinib]
Outline: (§1)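 Pellets of K562 cells were dounce-homogenised in PBS pH 7.4 with 1 mM MgCl2, and the crude extract was held at 1 mg/mL protein for a 30 min treatment with 10 μM compound. Aliquots were heated for 3 min over 48°C-58°C and pooled before NP-40 was added to 0.5% at 4°C. The supernatant from 21,000xg for 90 min was quantified by TMTpro 16plex LC-MS/MS with channel sums equalised. Values are reported from duplicates as log-two fold change in thermal stability relative to solvent controls.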

[2] = compound: C/C(=N\NC(=O)C1=CC(=CC=C1)S(=O)(=O)N2CCOCC2)/C3=C(C=CC(=C3)Cl)O
Outline: as §1

[3] = compound: C1=CC(=CC=C1C2=NC3=C(N2)C=C(C=C3)C(=O)N)OC4=CC=C(C=C4)Cl
Outline: as §1

[4] = compound: C1=CC2=C(C=CC(=C2)/C=C\3/C(=O)NC(=NCC4=CC=CS4)S3)N=C1
Outline: as §1

[5] = compound: C1=CC2=NC=CN=C2C=C1/C=C/3\C(=O)NC(=O)S3
Outline: as §1

[6] = compound: C1=CC=C(C=C1)C2=NC(=C(N2)C3=CC=NC=C3)C4=CC(=C(C=C4)Cl)O
Outline: as §1

[7] = compound: C1CCN(C1)C(=O)NC2=CC=CC(=C2)NC3=NC=C(C(=N3)NCCC4=CN=CN4)Br
Outline: as §1

[8] = compound: C1CN(CCC1(CC2=CC=C(C=C2)Cl)N)C3=NC=NC4=C3C=CN4
Outline: as §1

[9] = compound: C1COCCN1CCN2C3=CC=CC=C3N=C2NC(=O)C4=CC(=CC=C4)[N+](=O)[O-] [IRAK-1-4 Inhibitor I]
Outline: as §1

[10] = compound: C=CC(=O)N1CCC[C@@H](n2nc(-c3ccc(Oc4ccccc4)cc3)c3c(N)ncnc32)C1 [ibrutinib]
Outline: as §1

[11] = compound: CC(=O)c1cnc2ccc(-c3cc(Cl)c(O)c(Cl)c3)nc2c1N[C@H]1CC[C@H](CN(C)C)CC1
Outline: as §1

[12] = compound: CC(C)(C)Cn1c(N)nc2ccc(-c3[nH]c(C(C)(C)C)nc3-c3ccc(F)cc3)nc21 [ralimetinib]
Outline: as §1

[13] = compound: CC(C)(O)CC(=O)NCCn1ccc2ncnc(Nc3ccc(Oc4cccc(C(F)(F)F)c4)c(Cl)c3)c21
Outline: as §1

[14] = compound: CC(C)C1=C2N=C(C=C(N2N=C1)NCC3=CC=CC=C3)NCCCCCCN
Outline: as §1

[15] = compound: CC1=C(C(CC(=O)N1)C2=CC=C(C=C2)C(F)(F)F)C(=O)NC3=C(C=C4C(=C3)C=NN4)F
Outline: as §1

[16] = compound: CC1=C(C2=C(C=C1)C(=O)C3=CC=CC=C3N2CCCN)C
Outline: as §1

[17] = compound: CC1=C(C=C(C=C1)NC(=O)C2=CC(=CC=C2)C(C)(C)C#N)NC3=CC4=C(C=C3)N=CN(C4=O)C
Outline: as §1

[18] = compound: CC1=C(C=C(C=C1)NC(=O)C2=CC(=CC=C2)N(C)C)NC(=O)C3=CC=C(C=C3)O
Outline: as §1

[19] = compound: CC1=CC=C(C=C1)SC2=C3C=C(SC3=CN=C2)C(=O)N
Outline: as §1

[20] = compound: C1=CC=C2C(=C1)C3=NNC4=CC=CC(=C43)C2=O
Outline: as §1

Measured: log2 fold change

CDK5 (UniProt Q00535)
active: [11] 0.53
inactive: [1] -0.018 | [2] -0.065 | [3] 0.126 | [4] -0.041 | [5] -0.023 | [6] 0.01 | [7] 0.367 | [8] 0.004 | [9] 0.033 | [10] 0.015 | [12] 0.004 | [13] -0.023 | [14] -0.032 | [15] -0.034 | [16] -0.006 | [17] -0.052 | [18] 0.023 | [19] -0.058

CEP72 (UniProt Q9P209)
inactive: [1] -0.012 | [3] -0.015 | [6] 0.086 | [9] 0.079 | [12] -0.055 | [13] -0.122 | [14] 0.044 | [16] -0.097 | [18] -0.155

CDC6 (UniProt Q99741)
inactive: [1] 0.072 | [3] 0.137 | [6] 0.111 | [9] 0.055 | [12] -0.061 | [13] 0.044 | [14] 0.14 | [15] 0.03 | [16] 0 | [17] -0.02 | [18] -0.315

CDK2 (UniProt P24941)
active: [11] 0.362
inactive: [1] -0.026 | [2] -0.152 | [3] 0.051 | [5] -0.003 | [6] 0.008 | [20] 0.237 | [7] 0.135 | [8] 0.004 | [9] 0.014 | [10] -0.031 | [12] -0.038 | [13] 0.006 | [14] -0.036 | [15] -0.026 | [16] -0.016 | [17] -0.017 | [18] -0.003 | [19] -0.015

CEP57 (UniProt Q86XR8)
inactive: [1] -0.026 | [3] -0.023 | [7] 0.028 | [8] -0.082 | [14] -0.054

CDC37 (UniProt K7EKQ2)
inactive: [1] 0.053 | [2] -0.026 | [3] 0.012 | [4] 0.075 | [6] -0.007 | [20] -0.124 | [9] 0.079 | [11] 0.155 | [12] 0.007 | [13] -0.134 | [14] -0.004 | [15] -0.27 | [16] -0.027 | [17] 0.023 | [18] -0.022 | [19] -0.169

CEP57L1 (UniProt Q8IYX8)
inactive: [1] -0.064 | [3] 0.118 | [5] -0.021 | [6] -0.041 | [7] -0.013 | [8] 0.101 | [9] 0.35 | [10] -0.039 | [12] 0.171 | [13] -0.272 | [14] -0.049 | [15] 0.11 | [16] -0.191 | [17] -0.037 | [18] -0.044

CEBPB (UniProt P17676)
inactive: [1] -0.034 | [2] 0.073 | [3] 0.053 | [4] -0.021 | [5] -0.033 | [6] 0.019 | [20] -0.002 | [7] -0.001 | [8] -0.002 | [9] 0.052 | [10] 0.114 | [12] 0.313 | [13] 0.016 | [14] 0.016 | [16] -0.006 | [17] 0.187 | [18] -0.102

CEBPZOS (UniProt A8MTT3)
inactive: [1] -0.038 | [2] 0.013 | [3] 0.004 | [4] 0.003 | [6] -0.014 | [20] 0.006 | [7] -0.011 | [8] 0.005 | [9] -0.015 | [11] 0.02 | [12] 0.035 | [13] 0.022 | [14] -0.047 | [15] -0.054 | [16] 0.04 | [17] 0.112 | [18] -0.032 | [19] 0.012

Taken from the listing (two entries):
CDC37 (UniProt K7EKQ2)
inactive: [1] 0.053 | [2] -0.026 | [3] 0.012 | [4] 0.075 | [6] -0.007 | [20] -0.124 | [9] 0.079 | [11] 0.155 | [12] 0.007 | [13] -0.134 | [14] -0.004 | [15] -0.27 | [16] -0.027 | [17] 0.023 | [18] -0.022 | [19] -0.169

CEP57L1 (UniProt Q8IYX8)
inactive: [1] -0.064 | [3] 0.118 | [5] -0.021 | [6] -0.041 | [7] -0.013 | [8] 0.101 | [9] 0.35 | [10] -0.039 | [12] 0.171 | [13] -0.272 | [14] -0.049 | [15] 0.11 | [16] -0.191 | [17] -0.037 | [18] -0.044

The listing continues.

CEP152 (UniProt O94986)
inactive: [1] -0.011 | [2] -0.043 | [3] 0.142 | [4] -0.1 | [5] 0.139 | [6] 0.099 | [20] 0.123 | [7] -0.07 | [8] 0.073 | [9] 0.086 | [10] -0.077 | [12] 0.144 | [13] -0.092 | [14] -0.062 | [15] -0.04 | [16] -0.071 | [17] 0.095 | [18] -0.067

CFAP410 (UniProt O43822)
inactive: [1] -0.079 | [2] 0.107 | [3] 0.047 | [4] -0.08 | [5] 0 | [6] 0.015 | [20] 0.006 | [7] 0.054 | [8] -0.052 | [9] 0.103 | [10] 0.018 | [12] 0.163 | [13] -0.01 | [14] 0.048 | [15] 0.019 | [17] -0.004 | [18] -0.017

CDADC1 (UniProt Q9BWV3)
inactive: [17] 0.032

CENPV (UniProt Q7Z7K6)
inactive: [2] -0.033 | [4] 0.013 | [5] -0.093 | [6] -0.193 | [20] 0.015 | [7] -0.037 | [8] 0.012 | [9] 0.013 | [10] 0.036 | [12] 0.352 | [13] -0.235 | [15] 0.182 | [17] 0.121 | [18] -0.13
